{"source": "PubChem BioAssay AID1671195 (Yale University, 2021)", "aim": "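Genes whose knockdown alters LDL uptake in liver cancer cells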 (primary screen)", "cell system": "human Huh7 hepatoma cells", "reagents": "siRNA pool against human genes, 18 nM", "timing": "about 2 to 2.5 days of knockdown, then 8 h LDL uptake", "conditions": "DiI-labelled LDL at 30 µg/ml for 8 h, in lipoprotein-deficient serum medium", "measured": "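Per-cell DiI-LDL intensity by automated imaging; well means scaled to the plate median and given as a robust z-score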", "scale": "robust z-score: higher = more LDL uptake after knockdown", "call rule": "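a gene counts as active if at least two replicate z-scores exceed ±2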", "note": "Here is one part, drawn at random, of about 22,000 deposited reagents. About 1,510 of them (6.9%) were called active. 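Active includes knockdowns raising or lowering LDL uptake; positive z-scores mean more uptake, negative mean less.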 Reagents against one gene are numbered here."}
{"target": "ZNF875", "reagent": 1, "robust z-score, replicate 1": 0.509, "robust z-score, replicate 2": -0.161, "robust z-score, replicate 3": -0.42, "call": "inactive"}
{"target": "CERS6", "reagent": 1, "robust z-score, replicate 1": 0.776, "robust z-score, replicate 2": 0.458, "robust z-score, replicate 3": 0.433, "call": "inactive"}
{"target": "SH2D1B", "reagent": 1, "robust z-score, replicate 1": -0.0719, "robust z-score, replicate 2": -0.209, "robust z-score, replicate 3": 0.22, "call": "inactive"}
{"target": "OR2G3", "reagent": 1, "robust z-score, replicate 1": -1.45, "robust z-score, replicate 2": -1.5, "robust z-score, replicate 3": -1.55, "call": "inactive"}
{"target": "TM4SF20", "reagent": 1, "robust z-score, replicate 1": -0.999, "robust z-score, replicate 2": -0.424, "robust z-score, replicate 3": -0.164, "call": "inactive"}
{"target": "LOC401951 (retired record)", "reagent": 1, "robust z-score, replicate 1": 0.93, "robust z-score, replicate 2": 1.79, "robust z-score, replicate 3": 1.22, "call": "inactive"}
{"target": "SCNN1A", "reagent": 1, "robust z-score, replicate 1": -0.131, "robust z-score, replicate 2": -0.648, "robust z-score, replicate 3": -0.51, "call": "inactive"}
{"target": "DOK3", "reagent": 1, "robust z-score, replicate 1": 0.339, "robust z-score, replicate 2": -0.807, "robust z-score, replicate 3": -0.223, "call": "inactive"}
{"target": "LOC388593 (retired record)", "reagent": 1, "robust z-score, replicate 1": 0.0372, "robust z-score, replicate 2": 0.506, "robust z-score, replicate 3": 0.191, "call": "inactive"}
{"target": "USP53", "reagent": 1, "robust z-score, replicate 1": 0.693, "robust z-score, replicate 2": -0.128, "robust z-score, replicate 3": -0.0782, "call": "inactive"}
{"target": "USP53", "reagent": 2, "robust z-score, replicate 1": -1.08, "robust z-score, replicate 2": -1.07, "robust z-score, replicate 3": -1.27, "call": "inactive"}
{"target": "LOC441469 (retired record)", "reagent": 1, "robust z-score, replicate 1": -0.777, "robust z-score, replicate 2": -1.73, "robust z-score, replicate 3": -1.08, "call": "inactive"}
{"target": "EP400", "reagent": 1, "robust z-score, replicate 1": -1.64, "robust z-score, replicate 2": -1.4, "robust z-score, replicate 3": -1.68, "call": "inactive"}
{"target": "CCDC88A", "reagent": 1, "robust z-score, replicate 1": -0.377, "robust z-score, replicate 2": 1.45, "robust z-score, replicate 3": -0.456, "call": "inactive"}
{"target": "COL6A4P1", "reagent": 1, "robust z-score, replicate 1": 0.148, "robust z-score, replicate 2": 0.472, "robust z-score, replicate 3": 0.739, "call": "inactive"}
{"target": "RPL19P21", "reagent": 1, "robust z-score, replicate 1": -0.463, "robust z-score, replicate 2": -0.0316, "robust z-score, replicate 3": -0.363, "call": "inactive"}

Part of the list above, set out differently.
EP400
- robust z-score, replicate 1: -1.64
- robust z-score, replicate 2: -1.4
- robust z-score, replicate 3: -1.68
- call: inactive

CCDC88A
- robust z-score, replicate 1: -0.377
- robust z-score, replicate 2: 1.45
- robust z-score, replicate 3: -0.456
- call: inactive

COL6A4P1
- robust z-score, replicate 1: 0.148
- robust z-score, replicate 2: 0.472
- robust z-score, replicate 3: 0.739
- call: inactive
